Assay results from US9855229B2, “Treatment of respiratory disorders using ROR-gamma inhibitors” (Glenmark Pharmaceuticals S.A., priority 2015, dated 2018).
“Also recorded” adds a separate entry of the source. At least one structure is not confirmed: it was looked up by name or label, or the drawing left a doubt.

Legend:
Assay type in all cases: in vivo
[1] = test system: male C57BL/6 mice chronically exposed to cigarette smoke (CS); test: Inflammation and emphysema in animals chronically exposed to cigarette smoke (13 weeks); details: chronic CS 13 weeks; 10, 50, 100 μg i.n. od
[2] = test system: Poly (I:C) induced COPD exacerbation in female C57BL/6 mice; test: Poly (I:C) induced COPD exacerbation, BAL cell count; details: 50 or 100 μg i.n. q.d. on day 15
[3] = test system: cigarette smoke (CS) induced pulmonary inflammation model in male C57BL6/J mice; test: Cigarette smoke (CS) induced pulmonary inflammation model, 7 days exposure, BAL cell count; details: i.n., od, 7 days CS exposure
Experimental: Male C57BL/6 mice were exposed alternately to cigarette smoke (10 Kentucky Research Cigarettes 3R4F) and fresh air for 50 minutes (10 seconds cigarette smoke+5 seconds air for 19 puffs per cigarette) twice daily for 7 days in a whole-body box exposure system (SIU24, ProMech Lab Holding AB, Sweden). Test compounds were sonicated in 1×PBS containing 0.005% tween 80. For localized delivery to lung, animals were administered vehicle or test compounds intranasally (i.n.) (40 μl per animal) under isoflurane anaesthesia, once or twice in a day, 1 hour before smoke exposure. Non-drug-treated air and smoked control animals were given vehicle before exposure to fresh air or smoke as appropriate. Animals were sacrificed 20 hours after the last smoke exposure and subjected to bronchoalveolar lavage (BAL). Total and differential BAL cell count was performed.
BAL was performed at approximately 20 hours after final smoke exposure. Animals were euthanized with an overdose of urethane, trachea was exposed and BAL was performed 4 times using 0.3 ml PBS. All aspirates of BAL were pooled and total numbers of cells were determined using a hemocytometer. BALf was centrifuged. The cell pellet collected after centrifugation was resuspended in 15 μL serum and used for preparation of smears.
For cell differentials, slides were stained with Leishman's stain and a differential cell count of 500 cells based on standard morphology was performed manually.
Total and differential cell count was determined in the BALf. The results were expressed as percent inhibition of leukocytes in BALf. The change in the treatments was statistically evaluated by ANOVA followed by Dunnett's multiple comparisons test.

[4] = BAL 20 hours after last smoke exposure

In the case of CCn1c(C(C)(C)Oc2ccc(F)cc2F)nc2cc(NC(=O)Cc3ccc(S(=O)(=O)CC)cc3)ccc21 [Compound 1], the “CS mediated increase in macrophages in BALf” value [1] is reported as “significantly prevented”, the “CS mediated increase in neutrophils in BALf” value [1] is reported as “significantly prevented” and the “CS mediated increase in total leukocyte count (TLC) in BALf” value [1] is reported as “significantly prevented”. For the same compound, the “cigarette smoke induced emphysema (mean linear intercept)” value [1] was “significantly prevented; also recorded: significant inhibition”, the “inhibition of pulmonary inflammation in animals chronically exposed to CS” value [1] was “significant inhibition” and the “inhibition of exacerbations induced by Poly (I:C) and cigarette smoke” value [2] was “significant inhibition”. For the same compound, the “CS and poly (I:C) mediated increase in lymphocytes in BALf” value ([2]; BAL 48 hour after Poly (I:C)) was “significantly prevented”, the “CS and poly (I:C) mediated increase in neutrophils in BALf” value ([2]; BAL 48 hour after Poly (I:C)) was “significantly prevented” and the “CS and poly (I:C) mediated increase in total leukocyte count (TLC) in BALf” value ([2]; BAL 48 hour after Poly (I:C)) was “significantly prevented”. For the same compound, the “inhibition of pulmonary inflammation induced by cigarette smoke” value [3] was “significant inhibition”, the “CS mediated increase in macrophages in BALf” value [3, 4] was “significantly prevented” and the “CS mediated increase in neutrophils in BALf” value [3, 4] was “significantly prevented”. The “CS mediated increase in total leukocyte count (TLC) in BALf” value [3, 4] was “significantly prevented”.
